Test results reported in patent EP3270157B1, “SCREENING ASSAY FOR SWEETNESS” (Firmenich SA, priority 2016, dated 2018).
Some of these results come from one statement about several compounds together.

What follows are compounds tested against T1, T1R2/T1R3 receptor (Homo sapiens, UniProt Q7RTX0+Q8TE23). Details: Clone #1057 cells, concentration series, Fig. 6.
T1 sequence (Q8TE23 20-839): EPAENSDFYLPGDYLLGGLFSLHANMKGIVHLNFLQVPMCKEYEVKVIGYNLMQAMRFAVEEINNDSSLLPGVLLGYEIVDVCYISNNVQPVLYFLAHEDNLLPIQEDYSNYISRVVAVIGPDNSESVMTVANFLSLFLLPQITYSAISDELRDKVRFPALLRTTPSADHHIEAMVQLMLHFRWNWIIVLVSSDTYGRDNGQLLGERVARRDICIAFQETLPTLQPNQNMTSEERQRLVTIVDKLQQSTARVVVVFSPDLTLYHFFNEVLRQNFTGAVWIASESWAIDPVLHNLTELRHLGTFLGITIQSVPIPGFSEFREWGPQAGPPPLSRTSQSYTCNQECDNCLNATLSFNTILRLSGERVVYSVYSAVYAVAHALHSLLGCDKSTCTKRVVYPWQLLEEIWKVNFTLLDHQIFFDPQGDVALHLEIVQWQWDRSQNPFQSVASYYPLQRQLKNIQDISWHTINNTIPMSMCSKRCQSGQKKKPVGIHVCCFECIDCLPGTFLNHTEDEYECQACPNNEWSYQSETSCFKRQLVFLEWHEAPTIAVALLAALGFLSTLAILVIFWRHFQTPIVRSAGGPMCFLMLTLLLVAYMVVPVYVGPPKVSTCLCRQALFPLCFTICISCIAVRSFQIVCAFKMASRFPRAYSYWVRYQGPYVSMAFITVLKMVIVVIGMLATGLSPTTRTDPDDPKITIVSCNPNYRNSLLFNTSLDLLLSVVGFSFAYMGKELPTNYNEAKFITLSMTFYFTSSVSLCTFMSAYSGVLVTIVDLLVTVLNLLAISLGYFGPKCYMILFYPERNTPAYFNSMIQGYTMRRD
T1 sequence (Q7RTX0 21-852): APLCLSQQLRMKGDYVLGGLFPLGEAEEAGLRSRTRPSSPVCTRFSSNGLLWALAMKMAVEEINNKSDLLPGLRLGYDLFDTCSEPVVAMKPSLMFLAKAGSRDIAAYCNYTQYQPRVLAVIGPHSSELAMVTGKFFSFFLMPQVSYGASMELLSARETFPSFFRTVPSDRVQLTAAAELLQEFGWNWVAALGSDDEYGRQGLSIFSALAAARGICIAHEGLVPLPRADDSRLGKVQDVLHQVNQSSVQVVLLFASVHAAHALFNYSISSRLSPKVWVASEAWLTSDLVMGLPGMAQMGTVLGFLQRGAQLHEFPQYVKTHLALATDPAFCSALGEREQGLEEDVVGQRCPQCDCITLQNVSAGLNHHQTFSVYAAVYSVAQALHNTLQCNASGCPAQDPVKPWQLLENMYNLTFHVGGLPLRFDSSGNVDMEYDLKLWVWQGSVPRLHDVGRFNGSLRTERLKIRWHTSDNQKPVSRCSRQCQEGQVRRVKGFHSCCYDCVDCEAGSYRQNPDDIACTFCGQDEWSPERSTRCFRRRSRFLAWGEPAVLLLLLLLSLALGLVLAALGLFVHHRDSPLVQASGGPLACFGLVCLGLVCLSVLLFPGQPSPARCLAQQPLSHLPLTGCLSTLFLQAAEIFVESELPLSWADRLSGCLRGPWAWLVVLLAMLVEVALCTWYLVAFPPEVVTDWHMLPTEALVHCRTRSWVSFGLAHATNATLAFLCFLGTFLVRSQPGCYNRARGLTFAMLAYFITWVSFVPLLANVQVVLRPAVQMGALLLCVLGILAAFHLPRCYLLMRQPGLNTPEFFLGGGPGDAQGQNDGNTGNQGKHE

Compound | beta-arrestin-mediated receptor internalisation
OC[C@H]1O[C@H](O[C@H]2[C@H](O)[C@@H](O)[C@H](O)O[C@@H]2CO)[C@H](O)[C@@H](O)[C@@H]1O [maltose] | able to induce beta-arrestin-mediated receptor internalisation in a concentration-dependent manner
OC[C@@H](O)[C@@H](O)[C@H](O)[C@H](O)CO [mannitol] | able to induce beta-arrestin-mediated receptor internalisation in a concentration-dependent manner
OC[C@H]1O[C@@H](O[C@H]2[C@H](O)[C@@H](O)C(O)O[C@@H]2CO)[C@H](O)[C@@H](O)[C@H]1O (stereo partly drawn) [lactose] | able to induce beta-arrestin-mediated receptor internalisation in a concentration-dependent manner
